Test results: patent US20260265340A1 (CUROGEN TECHNOLOGY, published 2026)
These are yes or no findings as the source states them, for the method shown. Some binding calls cover weakened binding; strength is not graded here. Sequences can lack the tags named with a protein.

Chains of the proteins cited; added tags and fusions are not shown. Residues count along the entry.
UniProt Q16552, residues 20-155: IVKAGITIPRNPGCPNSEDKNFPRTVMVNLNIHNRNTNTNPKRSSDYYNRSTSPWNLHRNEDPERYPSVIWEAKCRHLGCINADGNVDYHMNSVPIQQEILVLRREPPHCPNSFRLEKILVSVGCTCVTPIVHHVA

Legend:
[1] = molecular target: human IL-17A homodimer (IL-17AA) (human) (UniProt Q16552); test: SDS-PAGE (reducing and non-reducing) of the SEC fractions of FIG. 5a; co-elution
[2] = molecular target: human IL-17A homodimer (IL-17AA) (human) (UniProt Q16552); test: size-exclusion chromatography of T1-T4-14 co-expressed with IL-17A in ExpiCHO cells and then incubated with E. coli TNFα at 4 °C

B1: IL-17RA/RC-Fc-TNFR2 fusion protein T1-T4-14 (Fc fusion)
chain: LRLLDHRAPVCSQPGLNCTVKNSDCLDDSWIHPRNLTPSSPKDLQIQLHFAHTQQGDLVPVAHIEWTLQTDASILYLEGAELSVLQLDTNERLCVRFEFLSKLRHHHRRWRFTFSHFVVDPGQEYEVTVHHLPKPIPDGDPNHQSKNFLVPDCEHPRMKVTTPCMSSALPWLNVSADGDNVHLVLNVSEEQHFGLSLYWNQVQGPPKPRWHKNLTGPQIITLNHTDLVPCLCIQVWPLEPDSVRTNICPFREDPRAHQNLWQAARLRLLTLQSWLLDAPCSLPAEAALCWRAPGGDPCQPLVPPLSWENVTVDKVLEFPLLKGHPNLCVQVNSSEKLQLQECLWADSLGPLKDDVLLLETRGPQDNRSLCALEPSGCTSLPSKASTRAARLGEYLLQDLQSGQCLQLWDDDLGALWACPMDKYIHKTGIEGRMDRNTGRGGEEKKKEKEKEEQEERETKTPECPSHTQPLGVFLFPPKPKDTLMISRTPEVTCVVVDVSQEDPEVQFNWYVDGVEVHNAKTKPREEQFNSTYRVVSVLTVLHQDWLNGKEYKCKVSNKGLPSSIEKTISKAKGQPREPQVYTLPPSQEEMTKNQVSLTCLVKGFYPSDIAVEWESNGQPENNYKTTPPVLDSDGSFFLYSRLTVDKSRWQEGNVFSCSVMHEALHNHYTQKSLSLSLGKGGGGSGGGGSGGGGSLELPAQVAFTPYAPEPGSTCRLREYYDQTAQMCCAKCPPGQHAKVFCTKTSDTVCDSCEDSTYTQLWNWVPECLSCSSRCSSDQVETQACTREQNRICTCRPGWYCALSKQEGCRLCAPLSKCRPGFGVARPGTETSDVVCKPCAPGTFSNTTSSTDICRPHQICSVVAIPGNASMDAVCTSTSPTRSMAPGAVHLPQPVSTRSQHTQPTPGPSTAPSTSILLPMGPSPPAEGSTGD
notes: Structure T1c-Fc-T4g; also called T1c-Fc-T4g; IL-17RA/RC-Fc-TNFR2 (T1-T4-14)
- binding [1]: binds
- binding [2]: binds
